Source: PubChem BioAssay AID1487 (National Center for Advancing Translational Sciences (NCATS), 2009)
This is one part of the list. Further columns of the screen follow, without active or inactive calls. The list favours compounds with an active or inconclusive main result. The note in brackets gives the kind of curve behind each potency; many fits are weak.

Experiment: qHTS Assay for Modulators of Lamin A Splicing
Conditions: HeLa LMNA splicing GFP/RFP minigene ratio, 48 h
In short: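 Read-out is the ratio of GFP to DsRed2 object intensity, acquired by 488 nm laser-scanning cytometry on HeLa lamin A-EGFP minigene reporter cells. Compound incubation 48 hrs at 37 °C in Opti-MEM with 2% FBS; DMSO 0.5% final.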

[1] = measured here: RFP viability control channel
[2] = measured here: GFP splicing reporter channel

**Q.** With `CCOc1ccccc1C(=O)Nc1nnc(CC)s1` as the molecule, how does the AC50 [1] read?
**A.** 35.5 µM [rising, single point]

**Q.** Which AC50 [1] does the source give for `Cc1ccc2nc(NC(=O)COC(=O)c3ccc(Br)o3)sc2c1` here?
**A.** 2.82 µM [falling, partial curve]

**Q.** Which AC50 [1] does the source give for `CNC(=O)/C(C#N)=C/c1c(F)cccc1Cl` here?
**A.** 11.2 µM [rising, partial curve, poor fit]

**Q.** Which AC50 [2] does the source give for `CSCCC(NS(=O)(=O)c1ccccc1F)C(=O)OCc1ccccc1Cl` (centres undefined) here?
**A.** 5.62 µM [rising, partial curve]

**Q.** Which AC50 [1] does the source give for `O=C(NCC(c1cccs1)N1CCOCC1)c1ccc(Br)o1` (centres undefined) here?
**A.** 15.8 µM [rising, single point]

**Q.** Which results are given for `COCCCNC(=O)c1cccn2c(=O)c3cc4ccccc4cc3nc12`?
**A.** AC50 [2]: 4.47 µM [falling, full curve]; AC50 [1]: 6.31 µM [falling, full curve]

**Q.** For `COc1ccc(NC(=O)C2CSC3c4ccccc4C(=O)N23)cc1` (centres undefined), which AC50 [1] is on record?
**A.** 2.24 µM [falling, full curve, poor fit]

**Q.** With `CCOc1ccccc1NC(=O)CSc1nc2cccnc2n1C` as the molecule, how does the AC50 [2] read?
**A.** 10 µM [rising, partial curve]

**Q.** What about the AC50 [1] of the same molecule?
**A.** 11.2 µM [rising, single point]

**Q.** Which AC50 [2] does the source give for `O=C(N/N=C/c1cccc(O)c1)c1ccc(COc2ccccc2Br)cc1` here?
**A.** 35.5 µM [falling, single point]

**Q.** For `Oc1ccc(-c2[nH]ncc2-c2nc3ccccc3s2)c(O)c1`, which AC50 [2] is on record?
**A.** 35.5 µM [falling, partial curve, poor fit]

**Q.** Which AC50 [2] does the source give for `Cc1nc(SCn2nnc3ccccc3c2=O)nc(C)c1C` here?
**A.** 8.91 µM [rising, partial curve, poor fit]

**Q.** Which AC50 [1] does the source give for `O=C(c1ccc(COc2ccc(Br)cc2)o1)N1N=C(C(F)F)CC1(O)C(F)F` (centres undefined) here?
**A.** 22.4 µM [rising, single point]

**Q.** Which AC50 [2] does the source give for `COC(=O)CCC(=O)OC1(C)C(=O)C=C2C=C(C3CC3)N(C3CC3)C=C2C1=O` (centres undefined) here?
**A.** 3.55 µM [rising, partial curve, poor fit]

**Q.** And the AC50 [1]?
**A.** 5.62 µM [rising, partial curve]

**Q.** Which results are given for `Cc1csc(=Nc2c(C)n(C)n(-c3ccccc3)c2=O)n1-c1ccccc1`?
**A.** AC50 [2]: 0.00562 µM [rising, full curve, poor fit]; AC50 [1]: 35.5 µM [rising, single point]

**Q.** With `O=C(c1ccc2ccccc2c1)N1CCN(c2ccccc2)CC1` as the molecule, how does the AC50 [1] read?
**A.** 15.8 µM [rising, single point]

**Q.** For `CCCC(=O)NC(c1cccs1)c1cc(Cl)c2cccnc2c1O` (centres undefined), which AC50 [2] is on record?
**A.** 14.1 µM [falling, single point]

**Q.** With `O=C(NNc1c2ccccc2nc2ccccc12)c1ccccc1O` as the molecule, how does the AC50 [2] read?
**A.** 35.5 µM [falling, single point]

**Q.** Which AC50 [1] does the source give for `CC(Sc1ccc2c(c1)OCCO2)C(=O)Nc1ccc2c(c1)OCO2` (centres undefined) here?
**A.** 17.8 µM [rising, single point]

**Q.** With `CCOC(=O)C(C)c1nn(C)c(=O)c2ccccc12` (centres undefined) as the molecule, how does the AC50 [2] read?
**A.** 35.5 µM [rising, single point]

**Q.** What about the AC50 [1] of the same molecule?
**A.** 35.5 µM [rising, single point]

**Q.** For `O=C1CSC(c2cn(-c3ccccc3)nc2-c2ccccc2)N1Cc1ccco1` (centres undefined), which AC50 [1] is on record?
**A.** 14.1 µM [rising, single point]

**Q.** Which AC50 [1] does the source give for `Cc1ccc(C)c(-n2[nH]c3c4c(ccc3c2=O)C(=O)c2ccccc2C4=O)c1` here?
**A.** 2 µM [rising, full curve]

**Q.** For `OCCCC1CCCN(Cc2cn[nH]c2-c2ccc(F)cc2F)C1` (centres undefined), which AC50 [1] is on record?
**A.** 3.98 µM [falling, partial curve]

**Q.** Which AC50 [2] does the source give for `COc1ccccc1/C=N/NC(=O)c1ccc(NC(=O)c2cccc([N+](=O)[O-])c2)cc1` here?
**A.** 0.501 µM [rising, full curve, poor fit]

**Q.** With `Cc1ccc(NC(=O)Cn2c(=O)oc3ccccc32)cc1` as the molecule, how does the AC50 [2] read?
**A.** 0.02 µM [rising, full curve, poor fit]

**Q.** Which AC50 [1] does the source give for `C=CCN1C=C2C(=O)C(C)(OC(=O)CCC(=O)OC)C(=O)C=C2C=C1C1CC1` (centres undefined) here?
**A.** 0.794 µM [rising, full curve, poor fit]

**Q.** For `Cc1ccc(/C=N/Nc2ccnc3cc(Cl)ccc23)c(C)c1`, which AC50 [1] is on record?
**A.** 6.31 µM [rising, partial curve, poor fit]

**Q.** Which AC50 [2] does the source give for `CCOc1cc(/C=C/C(=O)O)ccc1OCc1ccccc1` here?
**A.** 0.447 µM [rising, full curve, poor fit]

**Q.** What about the AC50 [1] of the same molecule?
**A.** 0.02 µM [rising, full curve, poor fit]

**Q.** For `Cc1ccccc1N1CCN(C(=S)c2ccc([N+](=O)[O-])cc2)CC1`, which AC50 [2] is on record?
**A.** 10 µM [rising, partial curve, poor fit]

**Q.** And the AC50 [1]?
**A.** 14.1 µM [rising, partial curve, poor fit]

**Q.** What does the source list for `COc1ccc(S(=O)(=O)N2c3ccccc3OCC2c2ccccc2)cc1` (centres undefined)?
**A.** AC50 [2]: 6.31 µM [rising, single point]; AC50 [1]: 7.08 µM [rising, partial curve]

**Q.** For `COc1ccc2c(c1)C(C)=CC(C)(C)N2C(=O)CNCc1ccc2c(c1)OCO2`, which AC50 [1] is on record?
**A.** 0.282 µM [rising, full curve, poor fit]

**Q.** Which AC50 [1] does the source give for `CCOC(=O)N1CCC(NC(=O)CSCc2nc(-c3cccc(OC)c3)oc2C)CC1` here?
**A.** 10 µM [rising, single point]

**Q.** For `C[C@H](O)[C@@H]1C(=O)N2C(C(=O)O)=C(SCCN=CN)C[C@@H]12`, which AC50 [2] is on record?
**A.** 10 µM [falling, single point]

**Q.** What about the AC50 [1] of the same molecule?
**A.** 5.62 µM [falling, single point]

**Q.** For `O=C(CCN1CCc2ccccc2C1)c1ccc2c(c1)OCCO2`, which AC50 [1] is on record?
**A.** 12.6 µM [rising, partial curve]

**Q.** What does the source list for `COc1ccccc1N1CCN(c2nc(C)nc3c2oc2ccccc23)CC1`?
**A.** AC50 [2]: 1.12 µM [rising, full curve]; AC50 [1]: 6.31 µM [rising, full curve]

**Q.** Which AC50 [1] does the source give for `Cc1ccc(OCCn2cc(/C=N/NC(=O)c3ccncc3)c3ccccc32)cc1` here?
**A.** 22.4 µM [rising, single point]

**Q.** Which AC50 [2] does the source give for `Cc1ccc(C2=CSC3=NCCN23)c(C)c1` here?
**A.** 5.62 µM [rising, partial curve]

**Q.** With `COc1ccc2nc(Nc3sc4c(c3C(N)=O)CCCC4)sc2c1` as the molecule, how does the AC50 [1] read?
**A.** 0.562 µM [rising, full curve]

**Q.** For `Cc1cc(=O)[nH]c(N/N=C/c2cccs2)n1`, which AC50 [2] is on record?
**A.** 22.4 µM [rising, single point]

**Q.** What about the AC50 [1] of the same molecule?
**A.** 35.5 µM [rising, single point]

**Q.** Which AC50 [2] does the source give for `CCCn1c(=S)[nH]c2cc(OC)c(OC)cc2c1=O` here?
**A.** 0.794 µM [rising, full curve, poor fit]

**Q.** Which AC50 [2] does the source give for `CN1CC(=O)Nc2cc(C(=O)O)ccc21` here?
**A.** 0.158 µM [falling, full curve, poor fit]

**Q.** For `Nc1cc(C2CCCC2)nn1-c1ccccc1`, which AC50 [1] is on record?
**A.** 25.1 µM [rising, single point]

**Q.** Which AC50 [2] does the source give for `O=Cc1cc2ccccc2nc1SCc1ccc(Cl)c(Cl)c1` here?
**A.** 4.47 µM [falling, partial curve]

**Q.** What about the AC50 [1] of the same molecule?
**A.** 5.62 µM [falling, single point]

**Q.** For `O=C(CSc1nccc(=O)[nH]1)Nc1ccc(Br)c(Cl)c1`, which AC50 [2] is on record?
**A.** 2.51 µM [rising, full curve, poor fit]

**Q.** And the AC50 [1]?
**A.** 12.6 µM [rising, partial curve]

**Q.** For `CN(C)S(=O)(=O)N(CC(=O)N1CCC(Cc2ccccc2)CC1)c1ccccc1`, which AC50 [2] is on record?
**A.** 0.0224 µM [rising, full curve, poor fit]

**Q.** And the AC50 [1]?
**A.** 0.0282 µM [rising, full curve, poor fit]

**Q.** What does the source list for `Cc1nn(-c2cccc(Cl)c2)c2nc(-c3ccncc3)cc(C(=O)N3CCOCC3)c12`?
**A.** AC50 [2]: 3.98 µM [falling, full curve]; AC50 [1]: 4.47 µM [falling, full curve, poor fit]

**Q.** With `CC1(C)Cc2c(sc3nc(-c4cccs4)n(N)c(=O)c23)CO1` as the molecule, how does the AC50 [2] read?
**A.** 10 µM [rising, partial curve]

**Q.** And the AC50 [1]?
**A.** 17.8 µM [rising, single point]

**Q.** Which results are given for `COC(=O)c1[nH]c2ccccc2c1NC(=O)CCN1CCSCC1`?
**A.** AC50 [2]: 3.16 µM [rising, partial curve, poor fit]; AC50 [1]: 3.98 µM [rising, full curve, poor fit]

**Q.** Which AC50 [1] does the source give for `CSc1cccc(NC(=O)CN(C)S(=O)(=O)c2ccc(C)cc2)c1` here?
**A.** 35.5 µM [rising, single point]

**Q.** With `Fc1ccc(-c2nn(-c3ccc(Cl)cc3)c3c2cnc2ccc(F)cc23)cc1` as the molecule, how does the AC50 [1] read?
**A.** 0.00282 µM [rising, full curve, poor fit]

**Q.** With `COc1ccccc1NC(=O)c1ccccc1NC(=O)c1cc(Cl)ccc1NC(=O)c1ccco1` as the molecule, how does the AC50 [2] read?
**A.** 31.6 µM [rising, single point]

**Q.** For `N#C/C(=C/c1ccncc1)c1nc2ccccc2s1`, which AC50 [1] is on record?
**A.** 35.5 µM [rising, single point]

**Q.** Which AC50 [2] does the source give for `Cc1ccc(Nc2sc(C(=O)c3ccc(F)cc3)c(N)c2S(=O)(=O)c2ccc(C)cc2)cc1` here?
**A.** 2.51 µM [rising, full curve]

**Q.** What about the AC50 [1] of the same molecule?
**A.** 3.16 µM [rising, full curve]

**Q.** Which AC50 [2] does the source give for `Cc1ccc(NC(=O)C2CCCN(S(=O)(=O)c3ccc4c(c3)oc(=O)n4C)C2)nc1` (centres undefined) here?
**A.** 11.2 µM [rising, partial curve, poor fit]

**Q.** What about the AC50 [1] of the same molecule?
**A.** 12.6 µM [rising, partial curve]

**Q.** Which AC50 [1] does the source give for `Cn1cnnc1-c1cccc(NC(=O)c2cc(F)c(F)cc2Cl)c1` here?
**A.** 1 µM [falling, full curve, poor fit]

**Q.** What does the source list for `O=C(Cc1ccc(Br)cc1)Nc1ccc(Cl)cc1`?
**A.** AC50 [2]: 22.4 µM [falling, single point]; AC50 [1]: 35.5 µM [falling, single point]

**Q.** Which AC50 [2] does the source give for `COc1ccc(/C=C/c2nc(-c3ccccc3O)n[nH]2)cc1OC` here?
**A.** 12.6 µM [rising, single point]

**Q.** And the AC50 [1]?
**A.** 22.4 µM [rising, partial curve]

**Q.** Which AC50 [2] does the source give for `COc1ccc(C(=O)Nc2nc(-c3ccc(OC)cc3)c(-c3ccc([N+](=O)[O-])cc3)s2)cc1` here?
**A.** 4.47 µM [rising, single point]

**Q.** And the AC50 [1]?
**A.** 4.47 µM [rising, single point]
